System: MOLM14 cells
Test: Chou-Talalay drug combination analysis (alamarBlue) of AS or ART-838 with antileukemic drugs
Assay type: cell-based, human
Conditions: simultaneous 48 h, each drug at 2.25× single-drug IC50, CI<1 synergy, =1 additivity, >1 antagonism
Method: For each two-drug pair, dose-response curves were generated for each drug individually and for the two drugs combined. […] This design is based on the recommendation of Chou that combination experiments be performed with drugs combined in an equipotent ratio based on their respective single-drug IC50 values. Following a 48-hour incubation with each drug or drug pair, cytotoxicity assays were performed using alamarBlue as described above.
Each set of drug combinations was tested in at least three independent experiments, each in triplicate.
Sequences are depicted at the bottom of FIG. 5.

In the case of `CO[C@@H]1[C@H](N(C)C(=O)c2ccccc2)C[C@H]2O[C@]1(C)n1c3ccccc3c3c4c(c5c6ccccc6n2c5c31)C(=O)NC4` [MID, midostaurin], the “combination index (CI) of the drug combined with AS” value is reported as 1.3.
